Measurements reported in publication PMC11226401.

Target: MUC1-C subunit (human (endogenous in BT-549 and MDA-MB-468))
Assay: affinity purification with mass spectrometry; anti-MUC1-C nuclear precipitates from TNBC cells analysed by mass spectroscopy; endogenous proteins

Row | Binder | binding
1 | NUP93 (protein, UniProt Q8N1F7 1-819) MDTEGFGELLQQAEQLAAETEGISELPHVERNLQEIQQAGERLRSRTLTRTSQETADVKASVLLGSRGLDISHISQRLESLSAATTFEPLEPVKDTDIQGFLKNEKDNALLSAIEESRKRTFGMAEEYHRESMLVEWEQVKQRILHTLLASGEDALDFTQESEPSYISDVGPPGRSSLDNIEMAYARQIYIYNEKIVNGHLQPNLVDLCASVAELDDKSISDMWTMVKQMTDVLLTPATDALKNRSSVEVRMEFVRQALAYLEQSYKNYTLVTVFGNLHQAQLGGVPGTYQLVRSFLNIKLPAPLPGLQDGEVEGHPVWALIYYCMRCGDLLAASQVVNRAQHQLGEFKTWFQEYMNSKDRRLSPATENKLRLHYRRALRNNTDPYKRAVYCIIGRCDVTDNQSEVADKTEDYLWLKLNQVCFDDDGTSSPQDRLTLSQFQKQLLEDYGESHFTVNQQPFLYFQVLFLTAQFEAAVAFLFRMERLRCHAVHVALVLFELKLLLKSSGQSAQLLSHEPGDPPCLRRLNFVRLLMLYTRKFESTDPREALQYFYFLRDEKDSQGENMFLRCVSELVIESREFDMILGKLENDGSRKPGVIDKFTSDTKPIINKVASVAENKGLFEEAAKLYDLAKNADKVLELMNKLLSPVVPQISAPQSNKERLKNMALSIAERYRAQGISANKFVDSTFYLLLDLITFFDEYHSGHIDRAFDIIERLKLVPLNQESVEERVAAFRNFSDEIRHNLSEVLLATMNILFTQFKRLKGTSPSSSSRPQRVIEDRDSQLRSQARTLITFAGMIPYRTSGDTNARLVQMEVLMN | binds
2 | RNA binding motif protein 14 (RBM14) (protein, UniProt Q96PK6 1-669) MKIFVGNVDGADTTPEELAALFAPYGTVMSCAVMKQFAFVHMRENAGALRAIEALHGHELRPGRALVVEMSRPRPLNTWKIFVGNVSAACTSQELRSLFERRGRVIECDVVKDYAFVHMEKEADAKAAIAQLNGKEVKGKRINVELSTKGQKKGPGLAVQSGDKTKKPGAGDTAFPGTGGFSATFDYQQAFGNSTGGFDGQARQPTPPFFGRDRSPLRRSPPRASYVAPLTAQPATYRAQPSVSLGAAYRAQPSASLGVGYRTQPMTAQAASYRAQPSVSLGAPYRGQLASPSSQSAAASSLGPYGGAQPSASALSSYGGQAAAASSLNSYGAQGSSLASYGNQPSSYGAQAASSYGVRAAASSYNTQGAASSLGSYGAQAASYGAQSAASSLAYGAQAASYNAQPSASYNAQSAPYAAQQAASYSSQPAAYVAQPATAAAYASQPAAYAAQATTPMAGSYGAQPVVQTQLNSYGAQASMGLSGSYGAQSAAAATGSYGAAAAYGAQPSATLAAPYRTQSSASLAASYAAQQHPQAAASYRGQPGNAYDGAGQPSAAYLSMSQGAVANANSTPPPYERTRLSPPRASYDDPYKKAVAMSKRYGSDRRLAELSDYRRLSESQLSFRRSPTKSSLDYRRLPDAHSDYARYSGSYNDYLRAAQMHSGYQRRM | binds

Results are given in words; binding and its absence hold for the method and conditions named. In cells and extracts the contact can be indirect. A yes stands for co-enrichment or nearness to the bait. Other partners may have been found.
